{"source": "patent US8071650B2", "about": "“Thiourea derivatives and the pharmaceutical compositions containing the same” (Pacific Corporation, priority 2000, dated 2011)", "system": "Male SD rats", "test": "Ulcer test: ethanol-induced anti-ulcer test", "format": "in vivo, rat", "settings": "ethanol-induced ulcer model", "protocol": "(5) Ulcer Test: Ethanol-induced Anti-ulcer Test\nMale SD rats (body weight 180-200 g), 5 animals/group, were fasted for 24 hours, and their stomaches were damaged. The rats were administered with 10 ml/kg of test drug suspended in 1% methylceflulose orally and, after 1 hour, 1 ml of 99% ethanol orally. After 1 hour without food and water, the rats were sacrificed by cervical dislocation and stomaches thereof were removed. The removed stomaches were incised along the greater curvature and opened.", "note": "For at least one compound, name, drawing or mass did not settle the structure."}
{"smiles": "CNC(=C[N+](=O)[O-])NCCSCc1ccc(CN(C)C)o1", "note": "[Ranitidine, ranitidine, reference compound]", "values": [{"measurement": "anti-ulcer activity (in words)", "value": "did not show anti-ulcer activity"}]}
